Source: PubChem BioAssay AID504749 (NCATS, 2011).

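Malaria parasite (P. falciparum) lines kept in red blood cells; parasite DNA is measured by SYBR Green fluorescence after lysis, 72 h after compound addition.
Each compound was titrated across a series from about 0.000037 to 29 µM.
The number is the fitted AC50, the concentration giving a half-maximal change in signal; a lower value means higher potency, whether the curve shows a decrease or an increase.
Calls follow the curve class and fit quality: every row here is inconclusive, covering signal-raising curves and weak, poorly fitted, partial or highest-dose-only inhibition curves.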

Values are in µM.
Every entry below has the call inconclusive.
Only part of the assay is shown, chiefly results filed as inconclusive.
Potencies fitted to partial, single-point or poorly fitting curves are rough.
Some entries filed as inconclusive have a full curve.

SMILES	tested on / at	potency (µM)	remark
CN(C)CC/C=C1\c2ccccc2CSc2ccccc21	CP265	3.981	inhibitor, single point
CN(C)CC/C=C1\c2ccccc2CSc2ccccc21	TAB165	3.162	inhibitor, partial curve
CN(C)CC/C=C1\c2ccccc2CSc2ccccc21	TAB109	3.162	inhibitor, single point
CN(C)CC/C=C1\c2ccccc2CSc2ccccc21	CP203	7.208	inhibitor, partial curve
CN(C)CC/C=C1\c2ccccc2CSc2ccccc21	CP305	3.22	inhibitor, partial curve, poor fit
CN(C)CC/C=C1\c2ccccc2CSc2ccccc21	CP252	2.512	inhibitor, partial curve
CN(C)CC/C=C1\c2ccccc2CSc2ccccc21	P93_24	3.162	inhibitor, partial curve
CN(C)CC/C=C1\c2ccccc2CSc2ccccc21	ICS	3.162	inhibitor, partial curve
CN(C)CC/C=C1\c2ccccc2CSc2ccccc21	CP268	2.869	inhibitor, partial curve
CN(C)CC/C=C1\c2ccccc2CSc2ccccc21	TAB113	3.981	inhibitor, partial curve
CN(C)CC/C=C1\c2ccccc2CSc2ccccc21	7G8	3.162	inhibitor, partial curve
CN(C)CC/C=C1\c2ccccc2CSc2ccccc21	CP247	3.162	inhibitor, single point
CN(C)CC/C=C1\c2ccccc2CSc2ccccc21	CP269	5.103	inhibitor, single point
CN(C)CC/C=C1\c2ccccc2CSc2ccccc21	CP237	0.7079	inhibitor, full curve
CN(C)CC/C=C1\c2ccccc2CSc2ccccc21	CP325	6.424	inhibitor, partial curve, poor fit
CN(C)CC/C=C1\c2ccccc2CSc2ccccc21	ATS95	3.162	inhibitor, partial curve
CN(C)CC/C=C1\c2ccccc2CSc2ccccc21	AS120	3.548	inhibitor, partial curve
CN(C)CC/C=C1\c2ccccc2CSc2ccccc21	CP215	5.726	inhibitor, single point
CN(C)CC/C=C1\c2ccccc2CSc2ccccc21	CP185	5.012	inhibitor, single point
CN(C)CC/C=C1\c2ccccc2CSc2ccccc21	CP217	3.981	inhibitor, partial curve
CN(C)CC/C=C1\c2ccccc2CSc2ccccc21	CP315	9.074	inhibitor, partial curve, poor fit
CN(C)CC/C=C1\c2ccccc2CSc2ccccc21	PC26	2.558	inhibitor, partial curve, poor fit
CN(C)CC/C=C1\c2ccccc2CSc2ccccc21	GB4	2.279	inhibitor, partial curve
CN(C)CC/C=C1\c2ccccc2CSc2ccccc21	ATS189	3.162	inhibitor, single point
CN(C)CC/C=C1\c2ccccc2CSc2ccccc21	DIV30	5.726	inhibitor, partial curve
CN(C)CC/C=C1\c2ccccc2CSc2ccccc21	SC27B	3.162	inhibitor, partial curve
CN(C)CC/C=C1\c2ccccc2CSc2ccccc21	DIV14	5.726	inhibitor, partial curve
CN(C)CC/C=C1\c2ccccc2CSc2ccccc21	P94_40	1.778	inhibitor, partial curve, poor fit
CN(C)CC/C=C1\c2ccccc2CSc2ccccc21	AA1029	2.512	inhibitor, partial curve
CN(C)CC/C=C1\c2ccccc2CSc2ccccc21	N140	3.162	inhibitor, partial curve
CN(C)CC/C=C1\c2ccccc2CSc2ccccc21	DIV17	5.726	inhibitor, partial curve
CN(C)CC/C=C1\c2ccccc2CSc2ccccc21	CP211	2.279	inhibitor, partial curve, poor fit
CN(C)CC/C=C1\c2ccccc2CSc2ccccc21	CP291	6.424	inhibitor, single point
CN(C)CC/C=C1\c2ccccc2CSc2ccccc21	CP194	5.726	inhibitor, partial curve
CN(C)CC/C=C1\c2ccccc2CSc2ccccc21	CP335	4.053	inhibitor, partial curve
CN(C)CC/C=C1\c2ccccc2CSc2ccccc21	CP260	3.548	inhibitor, partial curve
CN(C)CCC=C1c2ccccc2C(C)(C)c2ccccc21	CP325	10.69	inhibitor, partial curve, poor fit
CN(C)CCC=C1c2ccccc2C(C)(C)c2ccccc21	TAB113	6.31	inhibitor, partial curve
CN(C)CCC=C1c2ccccc2C(C)(C)c2ccccc21	N140	8.912	inhibitor, partial curve
CN(C)CCC=C1c2ccccc2C(C)(C)c2ccccc21	CP315	4.776	inhibitor, partial curve, poor fit
CN(C)CCC=C1c2ccccc2C(C)(C)c2ccccc21	CP256	10	inhibitor, single point
CN(C)CCC=C1c2ccccc2C(C)(C)c2ccccc21	CP297	8.492	inhibitor, partial curve
CN(C)CCC=C1c2ccccc2C(C)(C)c2ccccc21	CP262	15.1	inhibitor, single point
CN(C)CCC=C1c2ccccc2C(C)(C)c2ccccc21	CP291	6.746	inhibitor, partial curve
CN(C)CCC=C1c2ccccc2C(C)(C)c2ccccc21	DIV30	8.492	inhibitor, partial curve
CN(C)CCC=C1c2ccccc2C(C)(C)c2ccccc21	ATS95	10	inhibitor, partial curve
CN(C)CCC=C1c2ccccc2C(C)(C)c2ccccc21	DFO2036	7.943	inhibitor, partial curve
CN(C)CCC=C1c2ccccc2C(C)(C)c2ccccc21	CP217	11.22	inhibitor, single point
CN(C)CCC=C1c2ccccc2C(C)(C)c2ccccc21	CP191	11.22	inhibitor, single point

Some entries from above, unchanged:

SMILES	tested on / at	potency (µM)	remark
CN(C)CC/C=C1\c2ccccc2CSc2ccccc21	TAB113	3.981	inhibitor, partial curve
CN(C)CC/C=C1\c2ccccc2CSc2ccccc21	DIV17	5.726	inhibitor, partial curve
CN(C)CC/C=C1\c2ccccc2CSc2ccccc21	N140	3.162	inhibitor, partial curve
CN(C)CC/C=C1\c2ccccc2CSc2ccccc21	AA1029	2.512	inhibitor, partial curve